Some of these results come from one statement about several compounds together. For some assays here: At least one compound was matched to its structure with a doubt left. Starred links: 1 amine or outer side, 2 acyl side, 3 side chain; linkers in the order of their positions; H or OH if unused. Non-standard residues stand in square brackets, D forms with d. Residues, ends and D or L forms follow the SMILES beside them. *: point of attachment. X1 = COC(=O)C1OC(O[C@@H](c2ccccc2)[C@@H](C)N*)C(OC(C)=O)C(OC(C)=O)C1OC(C)=O; Dolaproine = CO[C@@H]([C@@H]1CCCN1)[C@@H](C)C(=O)O; X2 = C[C@@H](N[*:1])[C@@H](OC(=O)[*:2])c1ccccc1; NH(CH2CH2O)8Me = COCCOCCOCCOCCOCCOCCOCCOCCN*; X7 = COCCOC(=O)O[C@@H](c1ccccc1)[C@@H](C)N*; Dil = CC[C@H](C)[C@H](NC)[C@@H](CC(=O)O)OC; X5 = C[C@@H](N*)[C@@H](OP(=O)(O)O)c1ccccc1; X6 = C[C@@H](N*)[C@@H](O)c1ccccc1; NMeV = CN[C@H](C(=O)O)C(C)C; X3 = c1[nH]nnc1CN*
target: T1, human topoisomerase I (Homo sapiens, UniProt P11387); test: Topoisomerase I activity inhibition test; type: biochemical; details: read-out: IC50 value (topoisomerase I activity inhibition rate 50%); 37°C, supercoiled plasmid DNA, 60 min
T1 construct: purchased Sigma T9069
T1 sequence (P11387 1-765): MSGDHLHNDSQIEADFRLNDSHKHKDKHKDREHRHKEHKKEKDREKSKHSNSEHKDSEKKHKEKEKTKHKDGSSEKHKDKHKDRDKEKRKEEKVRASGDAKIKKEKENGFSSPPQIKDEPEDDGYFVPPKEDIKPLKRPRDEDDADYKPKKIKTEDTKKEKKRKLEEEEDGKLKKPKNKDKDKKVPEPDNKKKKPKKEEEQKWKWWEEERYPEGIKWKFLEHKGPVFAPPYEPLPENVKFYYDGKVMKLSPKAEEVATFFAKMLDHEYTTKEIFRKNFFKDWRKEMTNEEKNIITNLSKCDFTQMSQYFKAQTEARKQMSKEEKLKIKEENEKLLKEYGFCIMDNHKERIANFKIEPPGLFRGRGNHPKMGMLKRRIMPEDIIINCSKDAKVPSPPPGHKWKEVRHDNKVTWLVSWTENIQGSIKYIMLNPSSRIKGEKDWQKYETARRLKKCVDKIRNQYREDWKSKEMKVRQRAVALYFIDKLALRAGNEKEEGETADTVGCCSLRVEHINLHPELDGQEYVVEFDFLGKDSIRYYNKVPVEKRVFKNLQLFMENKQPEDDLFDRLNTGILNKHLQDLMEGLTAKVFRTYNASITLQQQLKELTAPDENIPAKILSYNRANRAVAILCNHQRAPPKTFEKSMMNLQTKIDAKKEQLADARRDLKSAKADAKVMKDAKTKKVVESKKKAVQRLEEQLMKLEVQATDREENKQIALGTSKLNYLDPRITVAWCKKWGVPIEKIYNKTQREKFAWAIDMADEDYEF

Chains of the proteins cited; added tags and fusions are not shown.
UniProt P02550, whole entry: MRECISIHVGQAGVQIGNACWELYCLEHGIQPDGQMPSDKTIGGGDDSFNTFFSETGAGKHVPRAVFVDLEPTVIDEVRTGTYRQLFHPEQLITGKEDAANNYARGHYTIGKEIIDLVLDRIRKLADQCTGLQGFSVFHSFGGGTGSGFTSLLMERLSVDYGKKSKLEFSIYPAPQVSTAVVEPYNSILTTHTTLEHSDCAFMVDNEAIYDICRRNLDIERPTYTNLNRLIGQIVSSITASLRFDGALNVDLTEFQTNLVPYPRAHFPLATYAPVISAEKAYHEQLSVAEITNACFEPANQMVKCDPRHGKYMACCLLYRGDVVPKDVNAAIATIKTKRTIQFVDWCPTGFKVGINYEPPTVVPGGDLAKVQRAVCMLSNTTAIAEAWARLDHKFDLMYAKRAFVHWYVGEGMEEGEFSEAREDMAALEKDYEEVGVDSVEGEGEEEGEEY
UniProt P02554, whole entry: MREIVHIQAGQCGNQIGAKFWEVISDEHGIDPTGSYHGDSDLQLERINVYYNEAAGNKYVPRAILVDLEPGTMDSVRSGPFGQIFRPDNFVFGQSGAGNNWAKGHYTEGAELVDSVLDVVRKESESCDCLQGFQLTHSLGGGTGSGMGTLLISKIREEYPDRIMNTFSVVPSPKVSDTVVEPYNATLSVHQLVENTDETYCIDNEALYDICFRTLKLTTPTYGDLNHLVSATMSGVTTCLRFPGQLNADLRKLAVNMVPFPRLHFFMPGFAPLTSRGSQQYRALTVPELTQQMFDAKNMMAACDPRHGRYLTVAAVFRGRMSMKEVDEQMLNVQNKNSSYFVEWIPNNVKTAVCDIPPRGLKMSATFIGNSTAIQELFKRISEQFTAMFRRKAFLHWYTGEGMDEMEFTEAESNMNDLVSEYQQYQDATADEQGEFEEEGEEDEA

Compound	IC50 [nM]
CC[C@@]1(O)C(=O)OCc2c1cc1n(c2=O)Cc2c-1nc1cc(F)c(C)c3c1c2[C@@H](NC(C)=O)CC3 [Example U-001]	≤ 15000
CC[C@@]1(O)C(=O)OCc2c1cc1n(c2=O)Cc2c-1nc1cc(F)c(C)c3c1c2[C@@H](NC(=O)CCO)CC3 [Example U-002]	≤ 15000
CC[C@@]1(O)C(=O)OCc2c1cc1n(c2=O)Cc2c-1nc1cc(F)c(C)c3c1c2[C@@H](NC(=O)CNC)CC3 [Example U-003]	≤ 15000
CC[C@@]1(O)C(=O)OCc2c1cc1n(c2=O)Cc2c-1nc1cc(F)c(C)c3c1c2[C@@H](NC(=O)c1cccc(N)c1)CC3 [Example U-004]	≤ 15000
CC[C@@]1(O)C(=O)OCc2c1cc1n(c2=O)Cc2c-1nc1cc(F)c(C)c3c1c2[C@@H](NC(=O)c1ccc(N)cc1)CC3 [Example U-005]	≤ 15000
CC[C@@]1(O)C(=O)OCc2c1cc1n(c2=O)Cc2c-1nc1cc(F)c(C)c3c1c2[C@@H](NC(=O)Cc1cccc(N)c1)CC3 [Example U-006]	≤ 15000
CC[C@@]1(O)C(=O)OCc2c1cc1n(c2=O)Cc2c-1nc1cc(F)c(C)c3c1c2[C@@H](NC(=O)Cc1ccc(N)cc1)CC3 [Example U-007]	≤ 15000

target: T2, porcine tubulin (Sus scrofa, UniProt P02550+P02554); test: Tubulin polymerization inhibition test; type: biochemical; details: read-out: IC50 value (tubulin polymerization inhibition rate 50%)
T2 construct: purchased Cytoskeleton, Inc. BK011P

Compound	IC50 [nM]
CC[C@H](C)[C@@H]([C@@H](CC(=O)N1CCC[C@H]1[C@H](OC)[C@@H](C)C(=O)N[C@H](C)[C@@H](O)c1ccccc1)OC)N(C)C(=O)[C@@H](NC(=O)[C@H](C(C)C)N(C)C)C(C)C [Example U-010]	≤ 3000

same assay, conditions: read-out: IC50 value (tubulin polymerization inhibition rate 50%); 37°C, 60 min fluorescence measurement

Compound	IC50 [nM]
CC[C@H](C)[C@@H]([C@@H](CC(=O)N1CCC[C@H]1[C@H](OC)[C@@H](C)C(=O)N[C@H](C)[C@@H](O)c1ccccc1)OC)N(C)C(=O)[C@@H](NC(=O)[C@H](C(C)C)N(C)Cc1cc(N)ccc1F)C(C)C [Example U-008]	≤ 3000
CC[C@H](C)[C@@H]([C@@H](CC(=O)N1CCC[C@H]1[C@H](OC)[C@@H](C)C(=O)N[C@H](C)[C@@H](O)c1ccccc1)OC)N(C)C(=O)[C@@H](NC(=O)[C@H](C(C)C)N(C)C(=O)CNC(=O)CN)C(C)C [Example U-009] (H-GG[NMeV]V[Dil][Dolaproine]-X6)	≤ 3000
CC[C@H](C)[C@@H]([C@@H](CC(=O)N1CCC[C@H]1[C@H](OC)[C@@H](C)C(=O)N[C@H](C)[C@@H](OC(=O)NCCOCCOCCOCCOCCOCCOCCOCCOC)c1ccccc1)OC)N(C)C(=O)[C@@H](NC(=O)[C@@H](NC)C(C)C)C(C)C [Example U-011] (H-[NMeV]V[Dil][Dolaproine][X2]-{NH(CH2CH2O)8Me})	≤ 3000
CC[C@H](C)[C@@H]([C@@H](CC(=O)N1CCC[C@H]1[C@H](OC)[C@@H](C)C(=O)N[C@H](C)[C@@H](OC(=O)OCCOC)c1ccccc1)OC)N(C)C(=O)[C@@H](NC(=O)[C@@H](NC)C(C)C)C(C)C [Example U-012] (H-[NMeV]V[Dil][Dolaproine]-X7)	≤ 3000
CC[C@H](C)[C@@H]([C@@H](CC(=O)N1CCC[C@H]1[C@H](OC)[C@@H](C)C(=O)N[C@H](C)[C@@H](O)c1ccccc1)OC)N(C)C(=O)[C@@H](NC(=O)[C@H](C(C)C)N(C)CCONC)C(C)C [Example U-013]	≤ 3000
CC[C@H](C)[C@@H]([C@@H](CC(=O)N1CCC[C@H]1[C@H](OC)[C@@H](C)C(=O)N[C@H](C)[C@@H](OC1OC(C(=O)OC)C(OC(C)=O)C(OC(C)=O)C1OC(C)=O)c1ccccc1)OC)N(C)C(=O)[C@@H](NC(=O)[C@@H](NC)C(C)C)C(C)C (some centres unmarked) [Example U-014] (H-[NMeV]V[Dil][Dolaproine]-X1)	≤ 3000
CC[C@H](C)[C@@H]([C@@H](CC(=O)N1CCC[C@H]1[C@H](OC)[C@@H](C)C(=O)N[C@H](C)[C@@H](OC(=O)NCCOCCOCCOCCOCCOCCOCCOCCOCCOCCOCCOCCOC)c1ccccc1)OC)N(C)C(=O)[C@@H](NC(=O)[C@@H](NC)C(C)C)C(C)C [Example U-015]	≤ 3000
CC[C@H](C)[C@@H]([C@@H](CC(=O)N1CCC[C@H]1[C@H](OC)[C@@H](C)C(=O)N[C@H](C)[C@@H](O)c1ccccc1)OC)N(C)C(=O)[C@@H](NC(=O)[C@H](C(C)C)N(C)CCc1ccc(N)cc1F)C(C)C [Example U-016]	≤ 3000
CC[C@H](C)[C@@H]([C@@H](CC(=O)N1CCC[C@H]1[C@H](OC)[C@@H](C)C(=O)N[C@H](C)[C@@H](O)c1ccccc1)OC)N(C)C(=O)[C@@H](NC(=O)[C@H](C(C)C)N(C)CCCC(=O)N[C@H]1CCc2c(C)c(F)cc3nc4c(c1c23)Cn1c-4cc2c(c1=O)COC(=O)[C@]2(O)CC)C(C)C [Example U-017]	≤ 3000
CC[C@H](C)[C@@H]([C@@H](CC(=O)N1CCC[C@H]1[C@H](OC)[C@@H](C)C(=O)N[C@H](C)[C@@H](OC(=O)NCc1c[nH]nn1)c1ccccc1)OC)N(C)C(=O)[C@@H](NC(=O)[C@@H](NC)C(C)C)C(C)C [Example U-021] (H-[NMeV]V[Dil][Dolaproine][X2]-X3)	≤ 3000
CC[C@H](C)[C@@H]([C@@H](CC(=O)N1CCC[C@H]1[C@H](OC)[C@@H](C)C(=O)N[C@H](C)[C@@H](OP(=O)(O)O)c1ccccc1)OC)N(C)C(=O)[C@@H](NC(=O)[C@@H](NC)C(C)C)C(C)C [Example U-030] (H-[NMeV]V[Dil][Dolaproine]-X5)	≤ 3000
CC[C@H](C)[C@@H]([C@@H](CC(=O)N1CCC[C@H]1[C@H](OC)[C@@H](C)C(=O)N[C@H](C)[C@@H](OP(=O)(O)O)c1ccccc1)OC)N(C)C(=O)[C@@H](NC(=O)[C@H](C(C)C)N(C)C)C(C)C [Example U-031]	≤ 3000
